Screen size: about 31,000 sequences; about 1,400 (4.5%) were called active.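 The calls were made as follows: active = median seed-adjusted z-score above 1 or below -1; inactive = the rest.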 Some of the results follow.
Assay: Novel Modifiers of Survival Motor Neuron (SMN) Protein: Gene Identification via Genome-wide siRNA Screen
Details: HEK293T SMN2-luciferase reporter, siRNA knockdown, 72 h; actives lie on both sides
Description: Spinal muscular atrophy (SMA) is the most common neuromuscular autosomal recessive disorder and one of the leading genetic causes of infant death. SMA results from mutations inducing loss of function or deletion in the survival of motor neuron-1 gene (SMN1), leading to deficiency of the survival motor neuron (SMN) protein. Although a second nearly identical gene, SMN2, is retained in humans, its expression primarily produces an aberrantly spliced isoform that is largely unstable and quickly degraded. We performed a genome-wide RNAi screen using a cell-based reporter assay to identify genes and pathways that modulate SMN protein stability. The screen identified over 200 genes that led to the greatest increase or decrease in luciferase expression.
Using HEK293T cells stably expressing a luciferase reporter that combines the promoter and splicing based cassettes in tandem with the major portion of the native SMN2 cDNA with luciferase, we performed a genome-wide RNAi screen to identify modulators of SMN protein levels. Luciferase is expressed when full-length SMN protein is generated with luminescence signal proportional to SMN protein levels. Our luciferase-based reporter assay was used to screen Ambion Silencer Select Human Druggable Genome siRNA library (10418 genes, 3 unique siRNAs per gene) using lipid-based reverse transfection.
Briefly, 1 pmol of each siRNA was spotted to a well of a 384-well plate (Corning, Corning, NY) and 20 microL of serum-free DMEM containing […] of Lipofectamine RNAiMax (Life Technologies, Carlsbad, CA) was then added to each well. Transfected cells were maintained at 37 degrees C in 5% CO2 for 72 hours, 20 microL of ONE-Glo Reagent (Promega) was added to wells for luciferase quantification. Raw luminescence reads were normalized to Ambion(R) Silencer(R) Negative Control #2 siRNA, then log10 transformed. A robust statistical measure of median absolute deviation (MAD) to standardize siRNA activities from each screen. Common Seed Analysis was used to help prioritize clean hits as opposed to those appearing to arise from seed based off-target effects. Candidate modulators were defined as the genes having a MAD score greater than 1.0 or less than -1.0.
With ACUAGCCUAUUAUUCCAAATT against VGLL2 the median seed-adjusted z-score was inactive: -0.0234. For CCAGCACACCUUACCGCUATT against PREB, the median seed-adjusted z-score was inactive: 0.182. In the case of UGAACAAACCAUACCUGUUTT against PRSS22, the median seed-adjusted z-score is reported as inactive: -0.565. With GCCUAGUGCCCGAAGUGAATT against F11R the median seed-adjusted z-score was inactive: -0.329. In the case of GGAACAACGAGAUGCAGAATT against BDKRB2, the median seed-adjusted z-score is reported as inactive: -0.311. For CCCUAUCAGUCAUAUUGGATT against DRD1, the median seed-adjusted z-score was inactive: -0.508. For CUCCAUUGCUGAGAUCUAUTT against NAPA, the median seed-adjusted z-score was inactive: -0.563. In the case of GGUCGAAUACAAAUGCGAATT against GNB4, the median seed-adjusted z-score is reported as inactive: 0.015. With GAUCAAUUCCAAUCCCAGATT against HTR3E the median seed-adjusted z-score was inactive: -0.717. For GAGGCCGCAUAUUACGAAATT against ASPA, the median seed-adjusted z-score was inactive: -0.138. With CCAAGGACCAGGUAGCUAATT against HSP90AA1 the median seed-adjusted z-score was inactive: -0.323. With CCCGGGUCAUCAUCAAUGATT against ENC1 the median seed-adjusted z-score was inactive: -0.132. With GGUUAUGCAAGAUAGACGATT against KIF5B the median seed-adjusted z-score was inactive: 0.162. In the case of GAAGCUCAAGGUCAAAUCATT against HSPBP1, the median seed-adjusted z-score is reported as inactive: 0.368. In the case of CCUUUGCCCUGGGAAUCCATT against SLCO4A1, the median seed-adjusted z-score is reported as inactive: -0.0802. With GCAGGGUAAUAUAUUUGGATT against POU4F3 the median seed-adjusted z-score was inactive: 0. For GAACUACAGAAUUCGGUAATT against LTA4H, the median seed-adjusted z-score was inactive: -0.742. For CUAUGUACCGCUUCACUGATT against MMP9, the median seed-adjusted z-score was active: -1.15. For UAGCCUCUUUGGAUCCAUUTT against KIFC2, the median seed-adjusted z-score was inactive: 0.932. In the case of GAAUAUGACUCUGCAAAGATT against PDLIM5, the median seed-adjusted z-score is reported as inactive: 0.439. In the case of GGAAGACGAUGGAUCGCAATT against PARP11, the median seed-adjusted z-score is reported as inactive: 0.192. For AGCUGCUACUGGAAGUCAATT against CBFA2T3, the median seed-adjusted z-score was inactive: -0.135. For GAUUACUGGUGCGAUGUUATT against L3MBTL4, the median seed-adjusted z-score was inactive: -0.189. In the case of GAAUGCCGGUCGAUUCUAATT against KIT, the median seed-adjusted z-score is reported as inactive: -0.686. For GACUUUCUACUAUGCGGAATT against MSRA, the median seed-adjusted z-score was inactive: -0.0316. For CCACGAACCUGCUUACAGATT against WNT1, the median seed-adjusted z-score was inactive: 0. For GGAUUGACCUCACCCAGAATT against MAP3K14, the median seed-adjusted z-score was inactive: -0.0609. With GCCUAAUUGCGGAACAUAUTT against ESCO1 the median seed-adjusted z-score was inactive: 0.755. For GGAGUUCAUGGGAACAUGATT against RBM28, the median seed-adjusted z-score was inactive: 0.649. For GGAAUGAUCGACUGCCUGATT against SLC25A18, the median seed-adjusted z-score was inactive: -0.0227. With UGAACGGCAUGAACACGUATT against FOXA2 the median seed-adjusted z-score was inactive: 0.883. With GAGCAGUUCGAACACCUUATT against RBM4B the median seed-adjusted z-score was inactive: -0.251. With CGGGAACACGUUUCAGGGATT against GPR157 the median seed-adjusted z-score was inactive: 0.152. In the case of GUGGAACAAUUGUAACAGATT against ETF1, the median seed-adjusted z-score is reported as active: -1.12. With CAAGGUUGCUGAUCCCACATT against CBR1 the median seed-adjusted z-score was inactive: -0.6. With AGGUCAUGCUGAUCAGCGATT against ITFG2 the median seed-adjusted z-score was inactive: 0.165. In the case of GCAAGGCCUUUGGACGCAUTT against WNT6, the median seed-adjusted z-score is reported as inactive: 0.027. In the case of CACUGAUUCUGAAGGCGAATT against RPS6KA1, the median seed-adjusted z-score is reported as inactive: 0.194. In the case of GGGAGGAAAUGACAUAACATT against AP1G1, the median seed-adjusted z-score is reported as inactive: 0.0802. For CCCUCGUGAAGAACCUGAATT against NCK2, the median seed-adjusted z-score was inactive: -0.397. With GGUCAACCAGUGUACCCAATT against TCF7L2 the median seed-adjusted z-score was inactive: 0.189. In the case of GCGAGAACAUGUUUACCUUTT against TARSL2, the median seed-adjusted z-score is reported as inactive: 0.361. In the case of GGAGUUACUCCAUUAACUATT against JARID1C, the median seed-adjusted z-score is reported as inactive: 0.372. For GGAAAAUGAUUUCAAUCCUTT against NEU1, the median seed-adjusted z-score was inactive: -0.425. In the case of CAGUCUUCCUAGAUCGUUUTT against PLCB4, the median seed-adjusted z-score is reported as inactive: -0.521. For CAGUGUCCCUAUGAAGGGATT against SRMS, the median seed-adjusted z-score was active: -1.58. For GAUCAAGAUUGAGUUCACATT against MYL3, the median seed-adjusted z-score was inactive: 0.212. For GGUAAAGAAUCUUUCCGAATT against MYH13, the median seed-adjusted z-score was inactive: 0.612. For GCAGUUCCUUCUUCGAGAATT against MGAT5, the median seed-adjusted z-score was inactive: 0.16. With CUAUCACUGUCUCAAGUCATT against ITGA10 the median seed-adjusted z-score was inactive: 0.378. In the case of GAAGUGCAUGGAUCCCUUUTT against WFDC8, the median seed-adjusted z-score is reported as inactive: 0.0427. With CAACCUGCUCUACAGCAAATT against PRSS27 the median seed-adjusted z-score was active: 1.03. For GGUGCGCUACUUCAUCGAUTT against PRDM12, the median seed-adjusted z-score was inactive: 0.245. In the case of UGCUCUCUGUUGCAUUGAATT against IAPP, the median seed-adjusted z-score is reported as inactive: -0.157. With CUCUCAUUCUAGAUCAUCATT against REPS1 the median seed-adjusted z-score was inactive: 0.185. In the case of CAAGCUAACUCCUCCGGAATT against TSGA14, the median seed-adjusted z-score is reported as inactive: 0.433. In the case of GAGUCCAGAUUACCACGAATT against CSAD, the median seed-adjusted z-score is reported as inactive: -0.0681. In the case of CAAGUAACAUUGUAGUCAATT against MAPK10, the median seed-adjusted z-score is reported as inactive: -0.0114. For CAAGCCUGAUUUCCACCUATT against DTD1, the median seed-adjusted z-score was active: -1.58. In the case of GCGGUAAAGCGUUCCAUGUTT against PKMYT1, the median seed-adjusted z-score is reported as inactive: 0.65. In the case of GGUCCAUAUUGGUUAUCUUTT against GCH1, the median seed-adjusted z-score is reported as inactive: 0.569. In the case of GCAGUUUCAGGGUAUGAAATT against LGMN, the median seed-adjusted z-score is reported as inactive: 0.391. For GCAUGCAGCCUUGAAGAUATT against CRYZL1, the median seed-adjusted z-score was inactive: 0.0481. In the case of GCAGUUAACACUCAAGGAATT against MKKS, the median seed-adjusted z-score is reported as active: 1.03. In the case of GGCUUGAAGUAUGGAAAAATT against QRICH1, the median seed-adjusted z-score is reported as active: -1.04. In the case of AGAUCUCCUUUCACCAAAATT against N6AMT1, the median seed-adjusted z-score is reported as inactive: 0.166. With GGUCCGGUUUAUCACUAAATT against UBE2K the median seed-adjusted z-score was inactive: 0.497. In the case of CGACCACGGCGAAGCAAUATT against TLX2, the median seed-adjusted z-score is reported as inactive: -0.182. In the case of UCACAACUAUGACAUCUCATT against DDOST, the median seed-adjusted z-score is reported as inactive: -0.315.
